The text below walks through data of paper PMC7819943, “Rice protein-binding microarrays: a tool to detect cis-acting elements near promoter regions in rice”.

Amino acid sequences for entries named in this document (tags omitted).
UniProt Q0JBA9, entry or part of it: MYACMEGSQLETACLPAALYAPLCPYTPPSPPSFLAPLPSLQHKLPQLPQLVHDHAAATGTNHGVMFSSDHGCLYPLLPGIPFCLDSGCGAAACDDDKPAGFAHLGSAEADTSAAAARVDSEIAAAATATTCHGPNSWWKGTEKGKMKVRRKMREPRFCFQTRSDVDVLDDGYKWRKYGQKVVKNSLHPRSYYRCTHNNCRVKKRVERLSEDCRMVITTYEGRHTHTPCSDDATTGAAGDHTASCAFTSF

Some of the results follow.

The target in this test is OsWRKY34 (Oryza sativa, UniProt Q0JBA9 1-250). The experiment in a line: protein-binding microarray (RPBM); PBS, 2% BSA, 51.3 ng/ul salmon testes DNA, 50 uM zinc acetate, 200 nM TF, 25 C, 1 h; high values mean tight binding. Particulars: protein: recombinant; tags: N-terminal polyhistidine and DsRed monomer fusion (pET32a); label: CyDye5-dUTP incorporated in the synthesized complementary strand; 3' TTTTT single-stranded linker to array surface; dsDNA, one strand shown. The procedure, abridged: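 An Axon 4000B scanner gave the binding signal as per-feature fluorescence intensity in arbitrary units. This followed washing of a custom Agilent array that had been incubated for 1 h at 25 °C with 200 nM protein in PBS, 2% BSA, salmon testes DNA and 50 µM zinc acetate. The proteins were transcription factors fused at the N-terminus to polyhistidine and DsRed, expressed in E. coli BL21-CodonPlus and purified on Ni–NTA.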
Regarding “GAATTATTATTTATTTTGTTTATCATTTGCTTTATTATCACGGAGTCACCTAGTGCAG”, the binding signal is 9240 fluorescence intensity (a.u.).
The same measure for “GCTTTTGGCTGTGGTGGGTGCTTGTGGGTGGAGAGAGAGACGGAGTCACCTAGTGCAG”: 19300 fluorescence intensity (a.u.); for “TTTTTTATATTTGTAACTGTTGTCTCTGTTTTCAGGAATTCGGAGTCACCTAGTGCAG”: 8890 fluorescence intensity (a.u.).
The same measure for “ATCAACTTTTAGTCTCATGTGCTATCCCCTTTTATTATTACGGAGTCACCTAGTGCAG”: 8300 fluorescence intensity (a.u.).
For “ATCCCAACCGAATCTAGTTCCTTGCTACAACTGACCAAACCGGAGTCACCTAGTGCAG” the value was 8340 fluorescence intensity (a.u.).
In the case of “CTGTACTCGCGCCTGCCGCCGCCCGCGTCGTCCGCCATCGCGGAGTCACCTAGTGCAG”, the binding signal was 8280 fluorescence intensity (a.u.).
The same measure for “AGAGCTTAATTTGGTATGTGTGTGTATATATATATATATACGGAGTCACCTAGTGCAG”: 8150 fluorescence intensity (a.u.); for “GACGGCCACCTAGACCCCATTCTACAGCTCCATCTTCACCCGGAGTCACCTAGTGCAG”: 12200 fluorescence intensity (a.u.); for “AACTTTTTTTTTTCTCTACTGCTACTGACAAGTCAAAAACCGGAGTCACCTAGTGCAG”: 9220 fluorescence intensity (a.u.).
Turning to “GACCCCATTTACACGCGCCGTCGACCGCATCTCATCTCATCGGAGTCACCTAGTGCAG”, the binding signal is 10800 fluorescence intensity (a.u.).
For “CCCGATCCATCCATCTCCTTCCTTGCATCTACTATTTTATCGGAGTCACCTAGTGCAG” the value was 14500 fluorescence intensity (a.u.); for “ACCACCTAATCTAAATTATTATTTAGTCCCTCCTTCCCAACGGAGTCACCTAGTGCAG”, 8290 fluorescence intensity (a.u.); for “TAATATTATGTTGCTTTTACTCTGCTAGTTATCTTCATGTCGGAGTCACCTAGTGCAG”, 9590 fluorescence intensity (a.u.).
For “CATGCTAGTTTCTTTATGTTGCACACAAGTGTTTCTTGATCGGAGTCACCTAGTGCAG” the value was 10400 fluorescence intensity (a.u.); for “CAGAGCTTTGTTTGTCGTCCTAGATCACTAATTTTTCAGACGGAGTCACCTAGTGCAG”, 8120 fluorescence intensity (a.u.).
As for “CAAGAAGGATCTTACATGTGGGTTGCACTTAACTATTTGCCGGAGTCACCTAGTGCAG”, the binding signal is 9540 fluorescence intensity (a.u.).
Turning to “CCGCCGACCATCTCCCGCCGCCTCCCCACCCCACCCCACGCGGAGTCACCTAGTGCAG”, the binding signal was 8060 fluorescence intensity (a.u.).
The same measure for “TGTTTGACATCGTTGACTTTTTAACACATGTTTCACTGTTCGGAGTCACCTAGTGCAG”: 36000 fluorescence intensity (a.u.); for “GTGATGCAGGCAAGAAACCCGGGCACACACATGGCTATTCCGGAGTCACCTAGTGCAG”: 8260 fluorescence intensity (a.u.).
For “TTCTTTCTCTTTTTTTTTTTACATCCTTCAAATTGTCATACGGAGTCACCTAGTGCAG”, the binding signal was 8360 fluorescence intensity (a.u.).
The same measure for “CTGGGGTTCTATCATAGCGGACTCAGATTAATATTTCACACGGAGTCACCTAGTGCAG”: 8850 fluorescence intensity (a.u.); for “CATTGTTCCATGGCTACAACAAGCCAACAGCTATAATATTCGGAGTCACCTAGTGCAG”: 8170 fluorescence intensity (a.u.).
With “CGAACTCGCCGCGGATTCCTTGCCCTCCACGCCGCAAACCCGGAGTCACCTAGTGCAG”, the binding signal was 8820 fluorescence intensity (a.u.).
With “GGTTACACTGATATGTGGGATCCATCTGTTCTTTTTTAATCGGAGTCACCTAGTGCAG”, the binding signal was 9380 fluorescence intensity (a.u.).
As to “TATATATACACGTCTATACCCACACGTTGATTAATGCGAGCGGAGTCACCTAGTGCAG”, the binding signal was 8770 fluorescence intensity (a.u.).
For “TTTCGATCCAATGGTAATTTTCAGGTTTCTATTTCCACCACGGAGTCACCTAGTGCAG” the value was 8660 fluorescence intensity (a.u.); for “GATCTCTCATTTTCATTTTCCTTCTTTTCCCTAGAGAAAGCGGAGTCACCTAGTGCAG”, 8430 fluorescence intensity (a.u.); for “TGCCGATGGTTTGGTTTCCTCTTCCTCACTTTTTCTTTCTCGGAGTCACCTAGTGCAG”, 8620 fluorescence intensity (a.u.).
As for “CGCGTACACCACCACCGCCTCGCACTTTTCCGCCATTTGTCGGAGTCACCTAGTGCAG”, the binding signal is 10300 fluorescence intensity (a.u.).
The same measure for “GTTATGCCAGCCCAGTTTTCAGAGTCTGTATTATGTTTCCCGGAGTCACCTAGTGCAG”: 9420 fluorescence intensity (a.u.); for “ACAACGACTTGGACGCCGCTGCCGCCGGGAACGATGACTCCGGAGTCACCTAGTGCAG”: 8460 fluorescence intensity (a.u.).
The same measure for “CATGTGAGAAAAAGTCAACGGCATCATCTATAAGCCAACTCGGAGTCACCTAGTGCAG”: 9380 fluorescence intensity (a.u.); for “GAGAGAGCACCTCGCCGCGGCCTCCAATCTCGCTCCACGACGGAGTCACCTAGTGCAG”: 9710 fluorescence intensity (a.u.).
For “CGTCGTCCCCAGCTAGCTATATCCCCTGCAGCATCACATCCGGAGTCACCTAGTGCAG”, the binding signal was 9610 fluorescence intensity (a.u.).
With “TTCTCAAGTCGTTTTCTCTCTCAATGTTGCCTGCTCGTGTCGGAGTCACCTAGTGCAG”, the binding signal was 8660 fluorescence intensity (a.u.).
The same measure for “TCCGTTGGTTCCATTCCTACTCGTCAACAGCTTTAAGATGCGGAGTCACCTAGTGCAG”: 10400 fluorescence intensity (a.u.); for “GCTGGCGGGTAGGGTAGGTCAGGTGTGGGCCATGGGTGTCCGGAGTCACCTAGTGCAG”: 8660 fluorescence intensity (a.u.).
For the sequence “TGTGTTGCGGCAATGACGGTATCATCAGATTCATCTCCATCGGAGTCACCTAGTGCAG”, the binding signal was 8570 fluorescence intensity (a.u.).
Turning to “TTCACTAGATATGTATGCTATGTTTAACAACAAAAACACCCGGAGTCACCTAGTGCAG”, the binding signal was 8300 fluorescence intensity (a.u.).
In the case of “CCGCCGGTTCCACGTATCAGCCTCCTCTCCTCTGTCACCTCGGAGTCACCTAGTGCAG”, the binding signal was 9070 fluorescence intensity (a.u.).
The same measure for “ATTTTGATCCCTCGAGGTGACATACCTTTGTTTCTTAGTACGGAGTCACCTAGTGCAG”: 8700 fluorescence intensity (a.u.); for “ACAGCAAACACACCTTTCACTCGACCTTATTCGAGAACTACGGAGTCACCTAGTGCAG”: 8860 fluorescence intensity (a.u.).
